In patent US8222260B2, “Substituted 6-anilinopurine derivatives as inhibitors of cytokinin oxidase/dehydrogenase and preparations containing these derivatives” (Univerzita Palackego V Olomouci, priority 2007, dated 2012):
Values joined by “and” are separate entries in the source; they are usually repeats but may differ in a detail not shown here. Equal values may be shown once. The name of at least one read-out is uncertain.

Tested on: Human diploid fibroblasts HCA
Assay: Anti-aging activity: senescence-associated beta-galactosidase in human fibroblasts
Type: cell-based
Settings: cells expressing senescence-associated beta-galactosidase
Method: In this example, effects of the compounds of this invention on the activity of a senescence biomarker senescence-associated β-galactosidase was studied. Human diploid fibroblasts HCA of various passage levels were used for this purpose. The tested compounds were added to the medium at each passage. After the incubation period, cells were washed with PBS and fixed with 2% formaldehyde and 0.2% glutaraldehyde in PBS. After another wash with PBS, they were incubated with the staining solution comprising potassium ferricyanide (5 mM), potassium ferrocyanide (5 mM), MgCl2 (2 mM), X-gal (5-bromo-4-chloro-3-indolyl-β-D-galactopyranoside) (1 mg/ml), in citric/phosphate buffer (pH 6.0) at 37° C. (without CO2) for at least 1 hour. Following the incubation period, the numbers of cells expressing senescence-associated β-galactosidase (blue cells) were counted using light microscope.

COc1cc(Nc2nc(Cl)nc3nc[nH]c23)ccc1O
Senescent Cells (%) HCA passage 80: 25% and 31%
